From publication PMC10942865
Residue numbers refer to the chain shown, from its start. These are yes or no findings as the source states them, for the method shown. Binding seen in cells or lysates may run through a third protein. For part of these data: A result given as binding can be weak or reduced; the word gives no strength. For part of these data: Where a sequence is shown, tags or fusion partners need not be part of it.

By UniProt entry, the sequences of proteins in these tests, tags left out.
UniProt Q9Y4B6: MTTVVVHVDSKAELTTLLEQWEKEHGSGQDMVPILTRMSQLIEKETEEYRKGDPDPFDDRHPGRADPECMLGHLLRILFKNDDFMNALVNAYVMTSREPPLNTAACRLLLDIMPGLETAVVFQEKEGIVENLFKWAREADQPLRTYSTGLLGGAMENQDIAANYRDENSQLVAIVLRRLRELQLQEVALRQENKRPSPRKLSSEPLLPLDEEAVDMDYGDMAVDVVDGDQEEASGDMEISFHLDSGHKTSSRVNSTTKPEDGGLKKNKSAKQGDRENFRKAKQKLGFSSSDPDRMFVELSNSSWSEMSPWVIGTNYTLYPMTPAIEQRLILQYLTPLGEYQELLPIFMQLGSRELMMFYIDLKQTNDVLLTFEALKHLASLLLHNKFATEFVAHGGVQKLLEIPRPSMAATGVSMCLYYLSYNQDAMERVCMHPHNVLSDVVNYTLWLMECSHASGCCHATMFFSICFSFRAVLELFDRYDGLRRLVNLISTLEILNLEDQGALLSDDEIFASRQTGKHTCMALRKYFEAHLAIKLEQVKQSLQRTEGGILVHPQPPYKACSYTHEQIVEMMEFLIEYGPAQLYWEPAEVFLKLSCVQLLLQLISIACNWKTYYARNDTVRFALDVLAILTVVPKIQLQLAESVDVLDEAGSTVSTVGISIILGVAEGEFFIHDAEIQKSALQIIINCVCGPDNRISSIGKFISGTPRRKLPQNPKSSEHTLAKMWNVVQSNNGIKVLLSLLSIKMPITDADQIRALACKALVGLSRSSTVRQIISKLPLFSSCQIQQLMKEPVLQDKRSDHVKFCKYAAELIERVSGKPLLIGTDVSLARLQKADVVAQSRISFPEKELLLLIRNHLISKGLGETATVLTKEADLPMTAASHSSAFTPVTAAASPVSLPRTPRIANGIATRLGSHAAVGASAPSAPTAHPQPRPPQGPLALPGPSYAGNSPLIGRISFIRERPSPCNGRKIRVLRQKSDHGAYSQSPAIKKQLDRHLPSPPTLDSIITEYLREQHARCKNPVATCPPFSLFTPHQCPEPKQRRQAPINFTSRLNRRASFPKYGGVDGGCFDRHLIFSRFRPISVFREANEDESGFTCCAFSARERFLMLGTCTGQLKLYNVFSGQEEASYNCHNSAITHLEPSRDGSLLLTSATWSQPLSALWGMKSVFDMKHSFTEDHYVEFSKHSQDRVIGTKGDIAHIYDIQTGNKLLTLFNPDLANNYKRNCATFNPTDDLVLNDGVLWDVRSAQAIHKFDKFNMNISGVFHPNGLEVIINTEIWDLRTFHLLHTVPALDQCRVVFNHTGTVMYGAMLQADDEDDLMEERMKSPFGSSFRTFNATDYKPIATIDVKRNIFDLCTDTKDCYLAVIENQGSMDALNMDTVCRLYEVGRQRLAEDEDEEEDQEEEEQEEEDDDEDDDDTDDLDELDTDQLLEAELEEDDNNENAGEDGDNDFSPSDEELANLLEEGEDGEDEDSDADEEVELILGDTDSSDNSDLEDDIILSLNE

What was measured:
[1] = molecular target: T1, Flag-PLK4 wt (polo-like kinase 4), full-length (human) (UniProt O00444); experiment: co-IP; sequential: Flag-PLK4 and HA-DCAF1 overexpressed in HEK293T; IP against the Flag tag, Flag peptide elution, then IP against the HA tag from the eluates, Western blot
T1 sequence: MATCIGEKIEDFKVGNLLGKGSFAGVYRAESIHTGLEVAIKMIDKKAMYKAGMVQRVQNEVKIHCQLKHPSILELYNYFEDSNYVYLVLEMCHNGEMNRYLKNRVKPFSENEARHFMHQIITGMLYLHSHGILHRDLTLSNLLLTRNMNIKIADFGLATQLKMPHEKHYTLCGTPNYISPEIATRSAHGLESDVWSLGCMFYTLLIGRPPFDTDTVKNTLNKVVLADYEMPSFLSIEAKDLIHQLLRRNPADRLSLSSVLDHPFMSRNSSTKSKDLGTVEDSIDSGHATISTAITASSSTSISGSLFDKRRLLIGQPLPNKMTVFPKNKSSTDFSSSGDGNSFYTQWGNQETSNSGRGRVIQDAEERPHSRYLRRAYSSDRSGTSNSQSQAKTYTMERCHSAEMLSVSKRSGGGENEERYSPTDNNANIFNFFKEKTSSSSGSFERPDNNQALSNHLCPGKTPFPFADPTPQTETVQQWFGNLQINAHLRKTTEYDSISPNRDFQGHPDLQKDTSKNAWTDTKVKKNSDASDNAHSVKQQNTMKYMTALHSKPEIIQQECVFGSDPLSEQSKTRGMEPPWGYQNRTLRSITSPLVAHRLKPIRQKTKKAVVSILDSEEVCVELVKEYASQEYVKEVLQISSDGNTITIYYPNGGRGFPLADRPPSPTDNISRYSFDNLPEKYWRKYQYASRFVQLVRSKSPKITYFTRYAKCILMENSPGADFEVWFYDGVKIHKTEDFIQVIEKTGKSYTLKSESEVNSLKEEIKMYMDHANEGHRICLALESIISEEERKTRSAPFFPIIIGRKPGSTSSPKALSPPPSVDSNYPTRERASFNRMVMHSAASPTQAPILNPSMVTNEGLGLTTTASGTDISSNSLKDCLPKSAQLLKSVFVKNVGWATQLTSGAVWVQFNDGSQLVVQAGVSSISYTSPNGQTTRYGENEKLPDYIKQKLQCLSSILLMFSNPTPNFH

[2] = molecular target: T1, Flag-PLK4 wt (polo-like kinase 4), full-length (human); experiment: co-IP; Flag-tagged protein overexpressed in HEK293T; 3-6 mg cell extract in NP-40 buffer with α-Flag M2 beads, 3 h or overnight at 4°C, 3x Flag peptide elution, Western blot; also cells synchronized in G1/S or G2, siRNA against PLK4, or λ-phosphatase treatment of the immunoprecipitate
[3] = molecular target: Flag-PLK4-ΔPEST (human) (UniProt O00444); experiment: as above
[4] = molecular target: T2, Flag-PLK4-AA (S285A + T289A), β-TrCP-binding mutant (human) (UniProt O00444); experiment: as above
T2 sequence: T1 sequence with S285A, T289A

[5] = molecular target: T3, Flag-PLK4 K41R (kinase-dead) (human) (UniProt O00444); experiment: as above
T3 sequence: T1 sequence with K41R

Substance | binding [1] | binding [2] | binding [3] | binding [4] | binding [5]
CUL4, endogenous (human (endogenous in HEK293T)) | binds | binds |  |  | 
DCAF1 (VprBP), endogenous (from UniProt Q9Y4B6 1-1507) |  |  | binds |  | 
β-TrCP, endogenous (human (endogenous in HEK293T)) |  | binds |  | no binding | no binding
